# Measured values reported in PubChem BioAssay AID332 (DTP/NCI, 2004).
# The list shows only some results of the screen, not a fair sample: it is rich in T/C values a quarter to a half above the control, in often repeated tests (any T/C) and in doses without a T/C. Other doses and runs of a compound stand elsewhere. T/C gives the treated animals as a percentage of the vehicle group. Schedule codes are those of the source, read here as Q, the interval in days (D) or hours (H), X, the number of doses. Some T/C values carry the count of animals alive at the toxicity check (mostly the fifth day); without a count, all were alive then. Some entries give survivors of the animals treated and no T/C: the source holds a T/C of zero for them, seemingly a mark for toxic or unscored doses. Counts of survivors are from the toxicity check (mostly the fifth day) where no day follows; animals may have died later. Some doses were run more than once; the values are given in rising order.
# System: mice, ADJ-PC-20 plasma cell tumor sc, T/C %
# Assay: NCI In Vivo Anticancer Drug Screen. Data for tumor model ADJ-PC-20 Plasma Cell (subcutaneous) in unknown mice
# Details: T/C endpoint: mean tumor weight, higher T/C = larger tumour; for T/C: evaluated on day 21
# Protocol: The antitumor activity of compounds was measured in mice bearing transplantable tumors. Survival or tumor size were measured and the results are expressed as the measurement made in the treated group (T) divided by the measurement made in the vehicle treated control group (C). The tumor model used in this assay is ADJ-PC-20 Plasma Cell (subcutaneous) in unknown mice
# [1] = dose: 6.25 mg/kg/injection, schedule: Q01DX010 (ip), vehicle: carboxymethylcellulose (CMC)
# [2] = dose: 100.0 mg/kg/injection, schedule: Q01DX010 (ip), vehicle: carboxymethylcellulose (CMC)
# [3] = dose: 200.0 mg/kg/injection, schedule: Q01DX010 (ip), vehicle: carboxymethylcellulose (CMC)
# [4] = dose: 50.0 mg/kg/injection, schedule: Q01DX010 (ip), vehicle: carboxymethylcellulose (CMC)
# [5] = dose: 125.0 mg/kg/injection, schedule: Q01DX010 (sc), vehicle: steroid suspending solution
# [6] = dose: 250.0 mg/kg/injection, schedule: Q01DX010 (sc), vehicle: steroid suspending solution
# [7] = dose: 500.0 mg/kg/injection, schedule: Q01DX010 (sc), vehicle: steroid suspending solution
# [8] = dose: 2.0 mg/kg/injection, schedule: Q01DX010 (ip), vehicle: carboxymethylcellulose (CMC)
# [9] = dose: 100.0 mg/kg/injection, schedule: Q01DX010 (sc), vehicle: steroid suspending solution
# [10] = dose: 50.0 mg/kg/injection, schedule: Q01DX010 (ip), vehicle: other
# [11] = dose: 25.0 mg/kg/injection, schedule: Q01DX010 (ip), vehicle: saline
structure (smiles),measurement,setting,value
CC(=O)OCC1OC(n2ncc(=O)[nH]c2=O)C(OC(C)=O)C1OC(C)=O (centres undefined),survivor count,"dose: 1000.0 mg/kg/injection, schedule: Q01DX010 (ip), vehicle: other",0 of 10
CCCCNc1ncnc2c1cnn2C,T/C,[1],135 % of control
same,survivor count,[2],0 of 10
same,survivor count,[3],0 of 10
C[n+]1c2ccccc2nc2c(N)cc(N)cc21,survivor count,[4],0 of 10
Cc1cc(N(CCCl)CCCl)ccc1N=Nc1ccccc1C(=O)O,survivor count,"dose: 60.0 mg/kg/injection, schedule: Q01DX010 (ip), vehicle: carboxymethylcellulose (CMC)",0 of 10
O=C1CCC(N2C(=O)c3ccccc3C2=O)C(=O)N1 (centres undefined),T/C,"dose: 150.0 mg/kg/injection, schedule: Q01DX010 (ip), vehicle: carboxymethylcellulose (CMC)",145 % of control
same,T/C,"dose: 600.0 mg/kg/injection, schedule: Q01DX010 (ip), vehicle: carboxymethylcellulose (CMC)",125 % of control
CC/C(=C(/CC)c1ccc(O)cc1)c1ccc(O)cc1,survivor count,[5],4 of 10
same,survivor count,[6],1 of 10
same,survivor count,[7],0 of 10
O=C(Nc1ccc(C2=NCCCN2)cc1)c1ccc(NC(=O)c2ccc(C3=NCCCN3)cc2)cc1,survivor count,[8],3 of 10
same,survivor count,"dose: 4.0 mg/kg/injection, schedule: Q01DX010 (ip), vehicle: carboxymethylcellulose (CMC)",5 of 10
same,survivor count,"dose: 8.0 mg/kg/injection, schedule: Q01DX010 (ip), vehicle: carboxymethylcellulose (CMC)",2 of 10
C[C@]12C=CC(=O)C=C1CC[C@@H]1[C@@H]2C(=O)C[C@@]2(C)[C@H]1CC[C@]2(O)C(=O)CO,survivor count,[9],5 of 10
same,survivor count,"dose: 200.0 mg/kg/injection, schedule: Q01DX010 (sc), vehicle: steroid suspending solution",0 of 6
S=c1nc[nH]c2nc[nH]c12,survivor count,[10],0 of 6 and 5 of 10
same,survivor count,"dose: 100.0 mg/kg/injection, schedule: Q01DX011 (ip), vehicle: other",0 of 6 and 3 of 10
same,survivor count,"dose: 200.0 mg/kg/injection, schedule: Q01DX011 (ip), vehicle: other",0 of 6
CCCSc1ncnc2nc[nH]c12,T/C,[8],133 % of control
C[C@]12C=CC(=O)C=C1CC[C@@H]1[C@@H]2[C@@H](O)C[C@@]2(C)[C@H]1CC[C@]2(O)C(=O)CO,survivor count,"dose: 63.0 mg/kg/injection, schedule: Q01DX010 (sc), vehicle: steroid suspending solution",5 of 10
same,survivor count,[5],0 of 10
same,survivor count,[6],0 of 10
O=C(Nc1ccc(C2=NCCN2)cc1)c1cccc(C(=O)Nc2ccc(C3=NCCN3)cc2)c1,survivor count,"dose: 75.0 mg/kg/injection, schedule: Q01DX010 (ip), vehicle: carboxymethylcellulose (CMC)",2 of 10
COc1cc2c(c(OC)c1OC)-c1ccc(OC)c(=O)cc1[C@@H](NC(C)=O)CC2,survivor count,"dose: 0.12 mg/kg/injection, schedule: Q01DX010 (ip), vehicle: saline",6 of 10
same,survivor count,"dose: 0.25 mg/kg/injection, schedule: Q01DX010 (ip), vehicle: saline",5 of 10
same,survivor count,"dose: 0.5 mg/kg/injection, schedule: Q01DX010 (ip), vehicle: saline",1 of 10
same,survivor count,"dose: 1.0 mg/kg/injection, schedule: Q01DX010 (ip), vehicle: saline",0 of 10
same,survivor count,"dose: 63.0 micrograms/kg/injection, schedule: Q01DX010 (ip), vehicle: saline",5 of 10
COC12C(COC(N)=O)C3=C(C(=O)C(C)=C(N)C3=O)N1CC1C2N1C (centres undefined),survivor count,"dose: 5.0 mg/kg/injection, schedule: Q01DX010 (ip), vehicle: carboxymethylcellulose (CMC)",2 of 10
O=c1[nH]cc(F)c(=O)[nH]1,T/C,"dose: 3.12 mg/kg/injection, schedule: Q01DX010 (ip), vehicle: saline",142 % of control [9 of 10 alive]
same,survivor count,[11],0 of 10
O=c1[nH]c(=O)n(C2CC(O)C(CO)O2)cc1I (centres undefined),survivor count,"dose: 500.0 mg/kg/injection, schedule: Q01DX010 (ip), vehicle: carboxymethylcellulose (CMC)",4 of 10
same,survivor count,"dose: 1000.0 mg/kg/injection, schedule: Q01DX010 (ip), vehicle: carboxymethylcellulose (CMC)",4 of 10
CN(C)c1nc(N(C)C)nc(N(C)C)n1,T/C,"dose: 125.0 mg/kg/injection, schedule: Q01DX010 (ip), vehicle: carboxymethylcellulose (CMC)",131 % of control
OCC1OC(n2cnc3c(Cl)ncnc32)C(O)C1O (centres undefined),survivor count,"dose: 2000.0 mg/kg/injection, schedule: Q01DX010 (ip), vehicle: carboxymethylcellulose (CMC)",0 of 10
same,survivor count,"dose: 4000.0 mg/kg/injection, schedule: Q01DX010 (ip), vehicle: carboxymethylcellulose (CMC)",0 of 10
CCCCn1cnc2c(=S)nc[nH]c21,survivor count,[3],0 of 10
N=[N+]=CC(=O)OCC(N)C(=O)O (centres undefined),survivor count,"dose: 5.0 mg/kg/injection, schedule: Q01DX010 (ip), vehicle: saline",5 of 10
same,survivor count,"dose: 10.0 mg/kg/injection, schedule: Q01DX010 (ip), vehicle: saline",0 of 10
CC(=O)O[C@]1(C(C)=O)CC[C@H]2[C@@H]3C[C@H](C)C4=CC(=O)C=C[C@]4(C)[C@@]3(F)[C@@H](O)C[C@@]21C,survivor count,"dose: 160.0 mg/kg/injection, schedule: Q01DX010 (sc), vehicle: steroid suspending solution",0 of 10
same,survivor count,"dose: 320.0 mg/kg/injection, schedule: Q01DX010 (sc), vehicle: steroid suspending solution",2 of 10
C[C@]12CCC(=O)C=C1CC[C@@H]1[C@@H]2C(=O)C[C@@]2(C)[C@H]1CC[C@]2(O)C(=O)CO,survivor count,[7],0 of 10
C=CC(CN1CC1)OC(C)=O (centres undefined),survivor count,"dose: 15.0 mg/kg/injection, schedule: Q01DX010 (ip), vehicle: carboxymethylcellulose (CMC)",0 of 10
same,survivor count,"dose: 30.0 mg/kg/injection, schedule: Q01DX010 (ip), vehicle: carboxymethylcellulose (CMC)",0 of 10
c1ccc(CNc2ncnc3[nH]ncc23)cc1,survivor count,"dose: 64.0 mg/kg/injection, schedule: Q01DX010 (ip), vehicle: carboxymethylcellulose (CMC)",1 of 10
same,survivor count,"dose: 128.0 mg/kg/injection, schedule: Q01DX010 (ip), vehicle: carboxymethylcellulose (CMC)",0 of 10
C[C@]12CCC(=O)C=C1CC[C@H]1[C@@H]3CC[C@](O)(C(=O)CO)[C@@]3(C)C[C@H](O)[C@@]12F,survivor count,"dose: 20.0 mg/kg/injection, schedule: Q01DX010 (sc), vehicle: steroid suspending solution",4 of 10
C[C@@H]1C[C@@H]([C@H](O)CC2CC(=O)NC(=O)C2)C(=O)[C@@H](C)C1,survivor count,"dose: 12.5 mg/kg/injection, schedule: Q01DX010 (ip), vehicle: saline",6 of 10
same,survivor count,[11],0 of 10
Cc1n[nH]c(=O)[nH]c1=O,T/C,[10],132 % of control
same,T/C,"dose: 800.0 mg/kg/injection, schedule: Q01DX010 (ip), vehicle: other",140 % of control [9 of 10 alive]
CSc1ncnc2c1ncn2C1OC(CO)C(O)C1O (centres undefined),survivor count,[1],6 of 10
same,survivor count,[4],0 of 10
same,survivor count,[2],0 of 10
same,survivor count,[3],0 of 10
C[C@]12CCC(=O)C[C@H]1CC[C@@H]1[C@@H]2CC[C@@]2(C)[C@H]1CC[C@]2(C)O,survivor count,"dose: 62.5 mg/kg/injection, schedule: Q01DX010 (sc), vehicle: steroid suspending solution",6 of 10
same,T/C,[5],128 % of control
Clc1ccc(C(c2ccccc2Cl)C(Cl)Cl)cc1 (centres undefined),T/C,[9],138 % of control
